Test results reported in patent US20170008949A1 (Hoffmann-La Roche, published 2017).
Results are given in words; binding and its absence hold for the method and conditions named. Some results given as binding are weak or reduced against the parent protein; the word gives no strength. Where a sequence is shown, tags or fusion partners need not be part of it.

The chains behind the UniProt entries cited, without tags or fusion partners. Residues count along the entry.
UniProt P05121, residues 24-402: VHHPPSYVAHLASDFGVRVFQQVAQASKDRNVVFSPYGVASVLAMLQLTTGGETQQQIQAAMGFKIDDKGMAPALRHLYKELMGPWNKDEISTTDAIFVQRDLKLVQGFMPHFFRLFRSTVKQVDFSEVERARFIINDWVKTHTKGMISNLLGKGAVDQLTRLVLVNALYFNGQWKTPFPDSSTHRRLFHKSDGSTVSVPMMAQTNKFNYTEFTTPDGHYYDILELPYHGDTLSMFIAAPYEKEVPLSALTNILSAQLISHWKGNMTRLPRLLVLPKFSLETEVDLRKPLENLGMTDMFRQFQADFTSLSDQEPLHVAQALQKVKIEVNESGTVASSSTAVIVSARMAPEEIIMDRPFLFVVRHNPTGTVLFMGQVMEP

Assays:
[1] = target: recombinant non-glycosylated human PAI-1 (active), produced in E. coli as N-terminal 6xHis-tagged fusion protein (human) (UniProt P05121); test: inferred by the filing from the PAI-1 inhibition assay
[2] = target: recombinant glycosylated human PAI-1 (active), produced in insect cells (human) (UniProt P05121); test: as above

binding [1]: binds
binding [2]: binds
B1: PAI1-0046 (reference PAI-1 latency inducing antibody with a human IgG4 SPLE Fc-region) (antibody, V domains shown)
VH: QVQLVQSGAEVKKPGASVKVSCKASGYTFTNYGMNWVRQAPGQGLEWMGWINTYTGEPTYTDDFKGRFTMTLDTSISTAYMELSRLRSDDTAVYYCAKDVSGFVFDYWGQGTLVTVSS
VL: DIVMTQSPDSLAVSLGERATINCKSSQSLLNIIKQKNCLAWYQQKPGQPPKLLIYWASTRESGVPDRFSGSGSGTDFTLTISSLQAEDVAVYYCQQYYSYPYTFGQGTKLEIKR
